Data as given in PubChem BioAssay AID652243 (Drosophila RNAi Screening Center, 2013).
Test: 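Fly genes required for human androgen receptor driven transcription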 (primary screen). Cells: Drosophila S2R+ cells. Knock-down reagent: long dsRNA against Drosophila genes. Duration: 72 h (48 h, then 24 h hormone). Conditions: synthetic androgen R1881 at 10 nM for 24 h. Read-out: 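Per-well raw luminescence of the androgen-driven firefly reporter and of the Renilla control, two replicates each, without normalisation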. Reading the numbers: firefly reporter light: higher = more light from androgen-responsive reporter; Renilla control light: higher = more constitutive control signal (cell number, transfection). Hit rule: 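Across duplicate plates, a knock-down whose log firefly/Renilla ratio shifted a set fold down or up from the GFP/LacZ control mean was a hit; the downward cut appears as both 1.5 and 3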. Calls: active = hit: reporter lowered or raised; inactive = no hit.
In all, the deposit lists about 24,000 reagents; below is an unselected part of those with a known target gene and a result. Of all reagents, 246 (1%) were called active. 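Plates not normalised; calls are printed but the firefly/Renilla ratio behind them is not deposited; fold cut for lowering reported inconsistently.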 Raw values are not corrected between plates. The numbers tell different reagents against one gene apart. A plus sign joins genes that one reagent is predicted to hit. Reagent sequences are not shown. Not stated in the record: the amount of reagent.

Gene,reagent,"firefly reporter light, replicate 1","firefly reporter light, replicate 2","Renilla control light, replicate 1","Renilla control light, replicate 2",activity call
l(3)72Dp,1,2.31e5,2.41e5,2.08e6,1.80e6,inactive
Gpb5,1,6.39e5,6.29e5,5.27e6,3.69e6,inactive
Or42b,1,2.70e5,2.74e5,1.77e6,1.95e6,inactive
Or42b,2,2.23e5,2.81e5,4.58e5,5.49e5,inactive
CG5359 + Spn85F,1,4.39e5,4.03e5,5.89e5,6.68e5,inactive
CG14110,1,3.58e5,4.34e5,2.59e6,2.04e6,inactive
CG34021,1,5.39e5,7.17e5,1.58e6,1.48e6,inactive
CG3492,1,4.25e5,6.28e5,1.38e6,1.66e6,inactive
CG5033,1,1.05e6,1.04e6,2.19e6,1.73e6,inactive
CG5033,2,2.61e5,1.73e5,3.48e5,4.76e5,inactive
CG34045,1,7.49e5,6.50e5,2.07e6,2.06e6,inactive
CG5466,1,7.02e5,6.53e5,1.43e6,1.68e6,inactive
CG5466,2,3.47e5,4.29e5,6.91e5,5.30e5,inactive
CaBP1,1,8.46e5,1.01e6,1.20e6,1.72e6,inactive
Fit2,1,56922,47751,6.82e5,4.54e5,inactive
CG8475,1,7.73e5,8.25e5,1.96e6,1.63e6,inactive
CG31041,1,9.27e5,6.13e5,1.37e6,6.09e5,inactive
CG33155 + mRpL53,1,1.37e5,1.59e5,3.99e5,6.42e5,inactive
CG33155 + mRpL53,2,5.10e5,5.29e5,9.10e5,9.10e5,inactive
CG12541,1,2.90e5,3.21e5,2.78e6,2.24e6,inactive
CG12541,2,3.34e5,5.43e5,1.13e6,1.64e6,inactive
Cyp6a18,1,3.76e5,2.84e5,2.77e6,3.08e6,inactive
CG13739,1,8.19e5,6.26e5,9.17e5,7.95e5,inactive
CG13739,2,3.53e5,3.66e5,8.98e5,9.91e5,inactive
CG15615,1,67921,78667,1.06e6,1.06e6,inactive
CG15615,2,3.83e5,5.18e5,7.02e5,7.02e5,inactive
Dic61B,1,8.67e5,7.67e5,9.96e5,7.09e5,inactive
Dic61B,2,2.16e5,1.82e5,4.31e5,4.67e5,inactive
CG4927,1,53765,73322,9.62e5,9.62e5,inactive
CG4927,2,3.24e5,3.26e5,1.78e6,1.34e6,inactive
CG34427,1,1.36e5,2.05e5,2.05e6,2.24e6,inactive
CG16723,1,1.74e5,2.18e5,1.72e6,2.05e6,inactive
CG16723,2,4.84e5,3.49e5,1.77e6,1.40e6,inactive
CG17612,1,7.44e5,1.19e6,2.09e6,2.26e6,inactive
CG17612,2,4.14e5,1.01e6,6.17e5,9.94e5,inactive
sordd2 + sordd1,1,59092,63863,4.76e5,5.54e5,inactive
sordd2 + sordd1,2,3.16e5,4.77e5,4.55e5,6.61e5,inactive
Lamtor5,1,3.04e5,4.34e5,3.90e6,4.45e6,inactive
Nna1,1,59797,71204,4.92e5,5.53e5,inactive
Nna1,2,3.85e5,3.25e5,6.97e5,5.99e5,inactive
CG18539,1,1.05e5,1.62e5,2.05e6,2.05e6,inactive
Jhbp1,1,31360,68560,1.38e6,1.54e6,inactive
Jhbp1,2,4.20e5,3.56e5,5.71e5,6.73e5,inactive
CG12105,1,6.52e5,1.18e6,1.23e6,1.26e6,inactive
CG12105,2,8.97e5,7.87e5,8.52e5,6.63e5,inactive
Gpdh3,1,2.92e5,3.38e5,3.67e6,4.02e6,inactive
PolD2,1,8.85e5,7.14e5,1.74e6,1.49e6,inactive
mTerf5,1,1.43e5,1.01e5,1.29e6,9.14e5,inactive
Lac,1,1.27e6,7.45e5,1.40e6,9.95e5,inactive
Gdh,1,62871,26977,6.48e5,2.98e5,inactive
Gdh,2,5.55e5,4.75e5,1.57e6,1.38e6,inactive
CG15126,1,1.19e5,1.95e5,2.41e6,1.44e6,inactive
alpha-Man-IIa,1,1.15e5,1.25e5,1.31e6,1.80e6,inactive
Or98a,1,1.93e5,2.46e5,2.29e6,3.01e6,inactive
Or98a,2,2.95e5,2.46e5,6.24e5,7.55e5,inactive
Alp4,1,2.30e5,2.54e5,2.43e6,3.04e6,inactive
Alp4,2,,,,,inactive
CG13457,1,3.72e5,2.92e5,3.40e6,2.83e6,inactive
CG13457,2,8.52e5,8.88e5,1.66e6,1.33e6,inactive
vanin-like,1,3.89e5,6.26e5,8.76e5,8.03e5,inactive
CG1544,1,73013,53092,5.77e5,3.95e5,inactive
CG32681,1,1.17e6,8.87e5,1.95e6,1.87e6,inactive
CCDC151,1,1.08e5,1.09e5,1.87e6,1.56e6,inactive
CCDC151,2,2.92e5,2.87e5,7.47e5,7.19e5,inactive
CG43121,1,1.15e6,1.34e6,1.52e6,2.56e6,inactive
Lsp1alpha,1,4.58e5,3.66e5,3.50e6,3.26e6,inactive
Lsp1alpha,2,4.83e5,3.49e5,4.89e5,5.85e5,inactive
CG7011,1,2.07e5,1.58e5,4.96e5,4.02e5,inactive
CG7011,2,4.94e5,8.30e5,1.08e6,1.84e6,inactive
Mulk,1,1.24e6,6.52e5,1.52e6,1.40e6,inactive
Mulk,2,,,,,inactive
Mulk,3,,,,,inactive
CG9752,1,7.95e5,7.50e5,1.71e6,1.86e6,inactive
CG31816,1,3.04e5,2.83e5,7.51e5,7.80e5,inactive

Look-ups from above:
Value of CG33155 + mRpL53 #1 in “Renilla control light, replicate 2”: 6.42e5
Result for CG43121 in “firefly reporter light, replicate 1”: 1.15e6
Entry for CG34021 in “firefly reporter light, replicate 1”: 5.39e5
Result for Lamtor5 in “firefly reporter light, replicate 1”: 3.04e5
Lac, firefly reporter light, replicate 2: 7.45e5
Value for CG13739 #2 in “activity call”: inactive
